This is an account of results in PMC9909437.

Amino acid sequences for entries named in this document (tags omitted).
UniProt Q9WV60: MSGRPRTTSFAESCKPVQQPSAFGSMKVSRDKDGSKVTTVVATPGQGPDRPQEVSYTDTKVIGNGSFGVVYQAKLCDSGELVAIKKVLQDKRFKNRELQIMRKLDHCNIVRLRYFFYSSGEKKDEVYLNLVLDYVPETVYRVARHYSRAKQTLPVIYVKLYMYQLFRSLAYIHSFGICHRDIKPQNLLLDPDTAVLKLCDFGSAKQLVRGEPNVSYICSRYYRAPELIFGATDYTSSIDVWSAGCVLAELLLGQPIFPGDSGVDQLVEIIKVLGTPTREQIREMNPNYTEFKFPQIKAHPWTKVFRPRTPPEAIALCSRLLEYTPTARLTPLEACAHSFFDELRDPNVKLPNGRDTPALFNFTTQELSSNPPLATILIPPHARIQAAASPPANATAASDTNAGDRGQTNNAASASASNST

Results are given in words; binding and its absence hold for the method and conditions named. In cells and extracts the contact can be indirect.

In the experiment the target is glycogen synthase kinase 3β (GSK3β) (mouse (endogenous in hippocampus)) (UniProt Q9WV60). Description: co-IP; endogenous kinase immunoprecipitated from hippocampal lysates of THY-Tau22 and littermate mice (12 months; non-injected, also AAV-Venus or AAV-APPsα injected) with α-CDK5 (Protein G beads) or α-GSK3β (Protein A beads); lysis buffer 0.05 M Tris-HCl pH 7.5, 0.25 M NaCl, 10 mM EDTA, 0.1% NP-40; 4°C; Western blot of the precipitate after the kinase reaction.

Consider “cyclin dependent kinase 5 (CDK5) (from UniProt P49615 1-292) (enzyme)”, for which the binding result was “no binding”.
